{"source": "PubChem BioAssay AID1259254 (NCATS, 2017)", "aim": "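Finding genes that stop cells copying their DNA twice in one cycle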 (primary screen)", "cell system": "human HCT116 colorectal cancer cells", "reagents": "single siRNA against human genes", "timing": "3 days", "read-out": "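Nuclei stained with Hoechst and imaged; cell-cycle phase assigned by DNA content; G2 share scaled per plate, non-targeting siRNA 0%, GMNN siRNA 100%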", "reading the numbers": "G2 robust z-score: higher = more G2 cells, more excess DNA replication", "active means": "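Active siRNAs have a G2 robust z of 5 or more median absolute deviations over the median, which in these data means about 38% or higher of GMNN control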", "note": "Here is one part, drawn at random, of about 59,000 reagents tested. In the full data, about 1,550 (2.6%) are marked active. 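G2 share is only a proxy for re-replication; each gene was hit by three separate siRNAs, and active genes were retested.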 A number with no mark means an inactive call. Reagents against one gene are numbered here. Not all columns of the deposit are shown. Not given: the amount of reagent."}
The opening 2 entries as a preview:
{"gene": "NPBWR2 (neuropeptides B and W receptor 2)", "reagent no.": 1, "G2 robust z-score": 1.28}
{"gene": "NPBWR2 (neuropeptides B and W receptor 2)", "reagent no.": 2, "G2 robust z-score": 2.29}

Results, repeating the preview:
{"gene": "NPBWR2 (neuropeptides B and W receptor 2)", "reagent no.": 1, "G2 robust z-score": 1.28}
{"gene": "NPBWR2 (neuropeptides B and W receptor 2)", "reagent no.": 2, "G2 robust z-score": 2.29}
{"gene": "NPBWR2 (neuropeptides B and W receptor 2)", "reagent no.": 3, "G2 robust z-score": 0.415}
{"gene": "RAB1A (RAB1A, member RAS oncogene family)", "reagent no.": 1, "G2 robust z-score": 4.17}
{"gene": "RAB1A (RAB1A, member RAS oncogene family)", "reagent no.": 2, "G2 robust z-score": -0.565}
{"gene": "RAB1A (RAB1A, member RAS oncogene family)", "reagent no.": 3, "G2 robust z-score": 0.211}
{"gene": "ZBTB8OSP2", "reagent no.": 1, "G2 robust z-score": -0.374}
{"gene": "ZBTB8OSP2", "reagent no.": 2, "G2 robust z-score": -0.282}
{"gene": "ZBTB8OSP2", "reagent no.": 3, "G2 robust z-score": -0.715}
{"gene": "DUS4L (dihydrouridine synthase 4 like)", "reagent no.": 1, "G2 robust z-score": 0.97}
{"gene": "DUS4L (dihydrouridine synthase 4 like)", "reagent no.": 2, "G2 robust z-score": 2.78}
{"gene": "DUS4L (dihydrouridine synthase 4 like)", "reagent no.": 3, "G2 robust z-score": 0.856}
{"gene": "WWC2 (WW and C2 domain containing 2)", "reagent no.": 1, "G2 robust z-score": 1.93}
{"gene": "WWC2 (WW and C2 domain containing 2)", "reagent no.": 2, "G2 robust z-score": -0.684}
{"gene": "WWC2 (WW and C2 domain containing 2)", "reagent no.": 3, "G2 robust z-score": -0.401}
{"gene": "SPATA9 (spermatogenesis associated 9)", "reagent no.": 1, "G2 robust z-score": -0.89}
{"gene": "SPATA9 (spermatogenesis associated 9)", "reagent no.": 2, "G2 robust z-score": -0.427}
{"gene": "SPATA9 (spermatogenesis associated 9)", "reagent no.": 3, "G2 robust z-score": 1.15}
{"gene": "POLR2K (RNA polymerase II, I and III subunit K)", "reagent no.": 1, "G2 robust z-score": 1.52}
{"gene": "POLR2K (RNA polymerase II, I and III subunit K)", "reagent no.": 2, "G2 robust z-score": 0.126}
{"gene": "POLR2K (RNA polymerase II, I and III subunit K)", "reagent no.": 3, "G2 robust z-score": 0.728}
{"gene": "SOX10 (SRY-box transcription factor 10)", "reagent no.": 1, "G2 robust z-score": -0.127}
{"gene": "SOX10 (SRY-box transcription factor 10)", "reagent no.": 2, "G2 robust z-score": 1.72}
{"gene": "SOX10 (SRY-box transcription factor 10)", "reagent no.": 3, "G2 robust z-score": -0.155}
